{"source": "paper PMC6964270", "about": "“Co-Prodrugs of 7-Ethyl-10-hydroxycamptothecin and Vorinostat with in Vitro Hydrolysis and Anticancer Effects” (ACS Omega, 2019)", "key": {"A549 cell line": {"system": "A549 cell line", "assay": "In vitro cytotoxicity, SRB assay, A549", "format": "cell-based", "conditions": "Homo sapiens, 72 h, three independent determinations, read-out: IC50 (mean ± SD) A549", "experimental": "(§1) The in vitro biological efficacy of 3a–d was evaluated in A549 and HCT116 cell lines. Briefly, the cells were seeded into 96-well microtest plates (1.0 × 10^4 cells per well) in 100 μL of culture medium. Cells were treated in triplicate with gradient concentrations of test drugs and incubated at 37 °C for 72 h. The cell viabilities on the cell lines were determined by the SRB assay subsequently. The drug concentration required for 50% growth inhibition (IC50) of tumor cells was determined from the dose–response curves."}, "HCT116 cell line": {"system": "HCT116 cell line", "assay": "In vitro cytotoxicity, SRB assay, HCT116", "format": "cell-based", "conditions": "Homo sapiens, HCT-116, 72 h, three independent determinations, read-out: IC50 (mean ± SD) HCT-116", "experimental": "as §1"}}, "data": [{"smiles": "O=C(CCCCCCC(=O)Nc1ccccc1)NO", "note": "[SAHA, Suberoylanilide hydroxamic acid, reference compound]", "values": [{"measurement": "IC50", "setting": "A549 cell line", "result": "2650 ± 126", "unit": "nM"}, {"measurement": "IC50", "setting": "HCT116 cell line", "result": "895 ± 57.3", "unit": "nM"}]}]}
